This test concerns the target GST-EspG5 (UniProt O53943). In words: pull-down; […]; 20 mM HEPES pH 7.5, 250 mM NaCl; […]; both purified.

Amino acid sequences for entries named in this document (tags omitted). A change or cut given only in a name is not applied to a line headed by its entry.
UniProt O53943: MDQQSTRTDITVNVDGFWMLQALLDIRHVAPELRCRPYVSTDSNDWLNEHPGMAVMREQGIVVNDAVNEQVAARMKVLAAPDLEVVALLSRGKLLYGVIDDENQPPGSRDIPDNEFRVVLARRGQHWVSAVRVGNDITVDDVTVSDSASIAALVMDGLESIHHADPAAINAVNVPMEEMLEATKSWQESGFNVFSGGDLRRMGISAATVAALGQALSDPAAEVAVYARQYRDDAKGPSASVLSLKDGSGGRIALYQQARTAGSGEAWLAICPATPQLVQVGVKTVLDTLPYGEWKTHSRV
UniProt P9WI05: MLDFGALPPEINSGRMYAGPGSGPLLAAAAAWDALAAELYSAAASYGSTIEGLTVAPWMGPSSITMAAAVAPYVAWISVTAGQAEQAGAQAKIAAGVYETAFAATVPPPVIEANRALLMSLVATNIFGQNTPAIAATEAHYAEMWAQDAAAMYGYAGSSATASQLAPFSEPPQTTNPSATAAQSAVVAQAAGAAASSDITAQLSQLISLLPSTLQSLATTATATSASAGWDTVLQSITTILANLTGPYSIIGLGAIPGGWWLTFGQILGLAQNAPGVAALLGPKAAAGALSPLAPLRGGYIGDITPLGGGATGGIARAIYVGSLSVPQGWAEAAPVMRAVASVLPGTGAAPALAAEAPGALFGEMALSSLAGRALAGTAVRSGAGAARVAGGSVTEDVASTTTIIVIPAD

These are yes or no findings as the source states them, for the method shown. Binding can be weak; no strength is given.

On to His-tagged PPE32 (from UniProt P9WI05), for which the binding result was “binds”.

The values are drawn from publication PMC11395111.
